Source: US12332198B2, “Metabolite based diagnostics for periprosthetic joint infection” (priority 2022, dated 2025)

System: P. aeruginosa PAO1
Assay: Untargeted NMR-based metabolomics, planktonic versus biofilm
Parameters: species or system Pseudomonas aeruginosa
Details: approximate

SMILES: CC(=O)O [Acetic acid]
- fold decrease of metabolite in biofilm: three-fold

SMILES: CC(O)C(=O)O (centres unmarked) [Lactic acid]
- fold decrease of metabolite in biofilm: about 10 fold
